Holding throughout (assay): affinity purification with mass spectrometry; streptavidin Sepharose coated with saturating biotinylated phosphopeptide or EAT-2; lysate of NK92 cells treated with 500 μM pervanadate (PBS, 1% Triton X-100, 1 mM orthovanadate); 2 hours at 4°C; eluted with glycine-HCl pH 2.5; LC-MS/MS; compared with a control bait (SHIP-1 Y865 phosphopeptide or EAT-2); only the target purified

Experiment [1] has as its target T1, CD244 ITSM1 phosphopeptide (Biotin-EFLTIpYEDVKD) (human).
T1 sequence (peptide, phosphotyrosine (pY, position 6 of the peptide); biotin on the N-terminus): EFLTIYEDVKD

Experiment [2] addresses T2, EAT-2 Y127 phosphopeptide (Biotin-NSNSDpYVDVLP) (human).
T2 sequence (peptide, phosphotyrosine at Y127 (position 6 of the peptide); biotin on the N-terminus): NSNSDYVDVLP

The target of experiment [3] is T3, Biotinylated EAT-2 (full length human EAT-2 with a C-terminal BirA tag) (human) (UniProt O14796).
T3 sequence (chain, biotin (on the BirA tag)): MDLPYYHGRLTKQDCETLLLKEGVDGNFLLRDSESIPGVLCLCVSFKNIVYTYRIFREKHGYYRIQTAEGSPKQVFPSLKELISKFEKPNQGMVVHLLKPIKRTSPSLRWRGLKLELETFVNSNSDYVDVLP

No constants are given. Whether binding was seen depends on the method and setting. Binding seen in cells or lysates may run through a third protein. Here binding means that the protein was enriched with, or labelled near, the bait; the list need not be complete. For some assays here: No binding means not detected with the bait. For some assays here: Where a sequence is shown, tags or fusion partners need not be part of it.

B1: SHIP-2 (endogenous, NK92 cells) (enzyme, UniProt O15357 1-1258)
chain: MASACGAPGPGGALGSQAPSWYHRDLSRAAAEELLARAGRDGSFLVRDSESVAGAFALCVLYQKHVHTYRILPDGEDFLAVQTSQGVPVRRFQTLGELIGLYAQPNQGLVCALLLPVEGEREPDPPDDRDASDGEDEKPPLPPRSGSTSISAPTGPSSPLPAPETPTAPAAESAPNGLSTVSHDYLKGSYGLDLEAVRGGASHLPHLTRTLATSCRRLHSEVDKVLSGLEILSKVFDQQSSPMVTRLLQQQNLPQTGEQELESLVLKLSVLKDFLSGIQKKALKALQDMSSTAPPAPQPSTRKAKTIPVQAFEVKLDVTLGDLTKIGKSQKFTLSVDVEGGRLVLLRRQRDSQEDWTTFTHDRIRQLIKSQRVQNKLGVVFEKEKDRTQRKDFIFVSARKREAFCQLLQLMKNKHSKQDEPDMISVFIGTWNMGSVPPPKNVTSWFTSKGLGKTLDEVTVTIPHDIYVFGTQENSVGDREWLDLLRGGLKELTDLDYRPIAMQSLWNIKVAVLVKPEHENRISHVSTSSVKTGIANTLGNKGAVGVSFMFNGTSFGFVNCHLTSGNEKTARRNQNYLDILRLLSLGDRQLNAFDISLRFTHLFWFGDLNYRLDMDIQEILNYISRKEFEPLLRVDQLNLEREKHKVFLRFSEEEISFPPTYRYERGSRDTYAWHKQKPTGVRTNVPSWCDRILWKSYPETHIICNSYGCTDDIVTSDHSPVFGTFEVGVTSQFISKKGLSKTSDQAYIEFESIEAIVKTASRTKFFIEFYSTCLEEYKKSFENDAQSSDNINFLKVQWSSRQLPTLKPILADIEYLQDQHLLLTVKSMDGYESYGECVVALKSMIGSTAQQFLTFLSHRGEETGNIRGSMKVRVPTERLGTRERLYEWISIDKDEAGAKSKAPSVSRGSQEPRSGSRKPAFTEASCPLSRLFEEPEKPPPTGRPPAPPRAAPREEPLTPRLKPEGAPEPEGVAAPPPKNSFNNPAYYVLEGVPHQLLPPEPPSPARAPVPSATKNKVAITVPAPQLGHHRHPRVGEGSSSDEESGGTLPPPDFPPPPLPDSAIFLPPSLDPLPGPVVRGRGGAEARGPPPPKAHPRPPLPPGPSPASTFLGEVASGDDRSCSVLQMAKTLSEVDYAPAGPARSALLPGPLELQPPRGLPSDYGRPLSFPPPRIRESIQEDLAEEAPCLQGGRASGLGEAGMSAWLRAIGLERYEEGLVHNGWDDLEFLSDITEEDLEEAGVQDPAHKRLLLDTLQLSK
In the case of B1, the binding entry in experiment [1] is “binds”.

B2: Phospholipase C gamma-2 (PLCγ2) (endogenous, NK92 cells) (enzyme, UniProt P16885 1-1265)
chain: MSTTVNVDSLAEYEKSQIKRALELGTVMTVFSFRKSTPERRTVQVIMETRQVAWSKTADKIEGFLDIMEIKEIRPGKNSKDFERAKAVRQKEDCCFTILYGTQFVLSTLSLAADSKEDAVNWLSGLKILHQEAMNASTPTIIESWLRKQIYSVDQTRRNSISLRELKTILPLINFKVSSAKFLKDKFVEIGAHKDELSFEQFHLFYKKLMFEQQKSILDEFKKDSSVFILGNTDRPDASAVYLHDFQRFLIHEQQEHWAQDLNKVRERMTKFIDDTMRETAEPFLFVDEFLTYLFSRENSIWDEKYDAVDMQDMNNPLSHYWISSSHNTYLTGDQLRSESSPEAYIRCLRMGCRCIELDCWDGPDGKPVIYHGWTRTTKIKFDDVVQAIKDHAFVTSSFPVILSIEEHCSVEQQRHMAKAFKEVFGDLLLTKPTEASADQLPSPSQLREKIIIKHKKLGPRGDVDVNMEDKKDEHKQQGELYMWDSIDQKWTRHYCAIADAKLSFSDDIEQTMEEEVPQDIPPTELHFGEKWFHKKVEKRTSAEKLLQEYCMETGGKDGTFLVRESETFPNDYTLSFWRSGRVQHCRIRSTMEGGTLKYYLTDNLTFSSIYALIQHYRETHLRCAEFELRLTDPVPNPNPHESKPWYYDSLSRGEAEDMLMRIPRDGAFLIRKREGSDSYAITFRARGKVKHCRINRDGRHFVLGTSAYFESLVELVSYYEKHSLYRKMRLRYPVTPELLERYNMERDINSLYDVSRMYVDPSEINPSMPQRTVKALYDYKAKRSDELSFCRGALIHNVSKEPGGWWKGDYGTRIQQYFPSNYVEDISTADFEELEKQIIEDNPLGSLCRGILDLNTYNVVKAPQGKNQKSFVFILEPKQQGDPPVEFATDRVEELFEWFQSIREITWKIDTKENNMKYWEKNQSIAIELSDLVVYCKPTSKTKDNLENPDFREIRSFVETKADSIIRQKPVDLLKYNQKGLTRVYPKGQRVDSSNYDPFRLWLCGSQMVALNFQTADKYMQMNHALFSLNGRTGYVLQPESMRTEKYDPMPPESQRKILMTLTVKVLGARHLPKLGRSIACPFVEVEICGAEYDNNKFKTTVVNDNGLSPIWAPTQEKVTFEIYDPNLAFLRFVVYEEDMFSDPNFLAHATYPIKAVKSGFRSVPLKNGYSEDIELASLLVFCEMRPVLESEEELYSSCRQLRRRQEELNNQLFLYDTHQNLRNANRDALVKEFSVNENQLQLYQEKCNKRLREKRVSNSKFYS
For B2, the binding result in experiment [2] is given as “binds”; in experiment [3], “no binding”.

B3: EAT-2 (endogenous, NK92 cells) (protein, UniProt O14796 1-132)
chain: T3 sequence (chain, biotin (on the BirA tag))
For the molecule B3, in experiment [1], the binding entry was “binds”.

B4: SHIP-1 (endogenous, NK92 cells) (enzyme, UniProt Q92835 1-1189)
chain: MVPCWNHGNITRSKAEELLSRTGKDGSFLVRASESISRAYALCVLYRNCVYTYRILPNEDDKFTVQASEGVSMRFFTKLDQLIEFYKKENMGLVTHLQYPVPLEEEDTGDDPEEDTVESVVSPPELPPRNIPLTASSCEAKEVPFSNENPRATETSRPSLSETLFQRLQSMDTSGLPEEHLKAIQDYLSTQLAQDSEFVKTGSSSLPHLKKLTTLLCKELYGEVIRTLPSLESLQRLFDQQLSPGLRPRPQVPGEANPINMVSKLSQLTSLLSSIEDKVKALLHEGPESPHRPSLIPPVTFEVKAESLGIPQKMQLKVDVESGKLIIKKSKDGSEDKFYSHKKILQLIKSQKFLNKLVILVETEKEKILRKEYVFADSKKREGFCQLLQQMKNKHSEQPEPDMITIFIGTWNMGNAPPPKKITSWFLSKGQGKTRDDSADYIPHDIYVIGTQEDPLSEKEWLEILKHSLQEITSVTFKTVAIHTLWNIRIVVLAKPEHENRISHICTDNVKTGIANTLGNKGAVGVSFMFNGTSLGFVNSHLTSGSEKKLRRNQNYMNILRFLALGDKKLSPFNITHRFTHLFWFGDLNYRVDLPTWEAETIIQKIKQQQYADLLSHDQLLTERREQKVFLHFEEEEITFAPTYRFERLTRDKYAYTKQKATGMKYNLPSWCDRVLWKSYPLVHVVCQSYGSTSDIMTSDHSPVFATFEAGVTSQFVSKNGPGTVDSQGQIEFLRCYATLKTKSQTKFYLEFHSSCLESFVKSQEGENEEGSEGELVVKFGETLPKLKPIISDPEYLLDQHILISIKSSDSDESYGEGCIALRLEATETQLPIYTPLTHHGELTGHFQGEIKLQTSQGKTREKLYDFVKTERDESSGPKTLKSLTSHDPMKQWEVTSRAPPCSGSSITEIINPNYMGVGPFGPPMPLHVKQTLSPDQQPTAWSYDQPPKDSPLGPCRGESPPTPPGQPPISPKKFLPSTANRGLPPRTQESRPSDLGKNAGDTLPQEDLPLTKPEMFENPLYGSLSSFPKPAPRKDQESPKMPRKEPPPCPEPGILSPSIVLTKAQEADRGEGPGKQVPAPRLRSFTCSSSAEGRAAGGDKSQGKPKTPVSSQAPVPAKRPIKPSRSEINQQTPPTPTPRPPLPVKSPAVLHLQHSKGRDYRDNTELPHHGKHRPEEGPPGPLGRTAMQ
As to B4, the binding entry in experiment [1] is “binds”.

B5: Phospholipase C gamma-1 (PLCγ1) (endogenous, NK92 cells) (enzyme, UniProt P19174 1-1290)
chain: MAGAASPCANGCGPGAPSDAEVLHLCRSLEVGTVMTLFYSKKSQRPERKTFQVKLETRQITWSRGADKIEGAIDIREIKEIRPGKTSRDFDRYQEDPAFRPDQSHCFVILYGMEFRLKTLSLQATSEDEVNMWIKGLTWLMEDTLQAPTPLQIERWLRKQFYSVDRNREDRISAKDLKNMLSQVNYRVPNMRFLRERLTDLEQRSGDITYGQFAQLYRSLMYSAQKTMDLPFLEASTLRAGERPELCRVSLPEFQQFLLDYQGELWAVDRLQVQEFMLSFLRDPLREIEEPYFFLDEFVTFLFSKENSVWNSQLDAVCPDTMNNPLSHYWISSSHNTYLTGDQFSSESSLEAYARCLRMGCRCIELDCWDGPDGMPVIYHGHTLTTKIKFSDVLHTIKEHAFVASEYPVILSIEDHCSIAQQRNMAQYFKKVLGDTLLTKPVEISADGLPSPNQLKRKILIKHKKLAEGSAYEEVPTSMMYSENDISNSIKNGILYLEDPVNHEWYPHYFVLTSSKIYYSEETSSDQGNEDEEEPKEVSSSTELHSNEKWFHGKLGAGRDGRHIAERLLTEYCIETGAPDGSFLVRESETFVGDYTLSFWRNGKVQHCRIHSRQDAGTPKFFLTDNLVFDSLYDLITHYQQVPLRCNEFEMRLSEPVPQTNAHESKEWYHASLTRAQAEHMLMRVPRDGAFLVRKRNEPNSYAISFRAEGKIKHCRVQQEGQTVMLGNSEFDSLVDLISYYEKHPLYRKMKLRYPINEEALEKIGTAEPDYGALYEGRNPGFYVEANPMPTFKCAVKALFDYKAQREDELTFIKSAIIQNVEKQEGGWWRGDYGGKKQLWFPSNYVEEMVNPVALEPEREHLDENSPLGDLLRGVLDVPACQIAIRPEGKNNRLFVFSISMASVAHWSLDVAADSQEELQDWVKKIREVAQTADARLTEGKIMERRKKIALELSELVVYCRPVPFDEEKIGTERACYRDMSSFPETKAEKYVNKAKGKKFLQYNRLQLSRIYPKGQRLDSSNYDPLPMWICGSQLVALNFQTPDKPMQMNQALFMTGRHCGYVLQPSTMRDEAFDPFDKSSLRGLEPCAISIEVLGARHLPKNGRGIVCPFVEIEVAGAEYDSTKQKTEFVVDNGLNPVWPAKPFHFQISNPEFAFLRFVVYEEDMFSDQNFLAQATFPVKGLKTGYRAVPLKNNYSEDLELASLLIKIDIFPAKENGDLSPFSGTSLRERGSDASGQLFHGRAREGSFESRYQQPFEDFRISQEHLADHFDSRERRAPRRTRVNGDNRL
As for B5, the binding entry in experiment [1] is on record as “binds”; in experiment [2] it was “binds”; in experiment [3], “no binding”.
